No constants are given. Whether binding was seen depends on the method and setting. Binding seen in cells or lysates may run through a third protein. Some binding calls cover weakened binding; strength is not graded here.
Molecular target: c-met receptor tyrosine kinase (human (endogenous in SRB12-p9)), P08581
Test: co-IP; IP experiments from WT and S3DN cells; data not shown
Conditions: remark: other sources report otherwise

binding: binds
B1: FAK, Q05397 1-1052 (protein)
chain: MAAAYLDPNLNHTPNSSTKTHLGTGMERSPGAMERVLKVFHYFESNSEPTTWASIIRHGDATDVRGIIQKIVDSHKVKHVACYGFRLSHLRSEEVHWLHVDMGVSSVREKYELAHPPEEWKYELRIRYLPKGFLNQFTEDKPTLNFFYQQVKSDYMLEIADQVDQEIALKLGCLEIRRSYWEMRGNALEKKSNYEVLEKDVGLKRFFPKSLLDSVKAKTLRKLIQQTFRQFANLNREESILKFFEILSPVYRFDKECFKCALGSSWIISVELAIGPEEGISYLTDKGCNPTHLADFTQVQTIQYSNSEDKDRKGMLQLKIAGAPEPLTVTAPSLTIAENMADLIDGYCRLVNGTSQSFIIRPQKEGERALPSIPKLANSEKQGMRTHAVSVSETDDYAEIIDEEDTYTMPSTRDYEIQRERIELGRCIGEGQFGDVHQGIYMSPENPALAVAIKTCKNCTSDSVREKFLQEALTMRQFDHPHIVKLIGVITENPVWIIMELCTLGELRSFLQVRKYSLDLASLILYAYQLSTALAYLESKRFVHRDIAARNVLVSSNDCVKLGDFGLSRYMEDSTYYKASKGKLPIKWMAPESINFRRFTSASDVWMFGVCMWEILMHGVKPFQGVKNNDVIGRIENGERLPMPPNCPPTLYSLMTKCWAYDPSRRPRFTELKAQLSTILEEEKAQQEERMRMESRRQATVSWDSGGSDEAPPKPSRPGYPSPRSSEGFYPSPQHMVQTNHYQVSGYPGSHGITAMAGSIYPGQASLLDQTDSWNHRPQEIAMWQPNVEDSTVLDLRGIGQVLPTHLMEERLIRQQQEMEEDQRWLEKEERFLKPDVRLSRGSIDREDGSLQGPIGNQHIYQPVGKPDPAAPPKKPPRPGAPGHLGSLASLSSPADSYNEGVKLQPQEISPPPTANLDRSNDKVYENVTGLVKAVIEMSSKIQPAPPEEYVPMVKEVGLALRTLLATVDETIPLLPASTHREIEMAQKLLNSDLGELINKMKLAQQYVMTSLQQEYKKQMLTAAHALAVDAKNLLDVIDQARLKMLGQTRPH
